PubChem BioAssay AID1259405, NCATS, 2018
Here is one part, drawn at random, of about 50,000 deposited reagents. Of all reagents, about 4,000 (8%) were called active. 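Mouse siRNA library applied to hamster cells; one well for each siRNA.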 Unmarked entries are inactive. The numbers tell different reagents against one gene apart.

- Assay: 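Mouse-designed siRNAs used to find CHO productivity engineering targets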 (primary screen)
- System: Chinese hamster CHO-K1 ovary cells with stable secreted eGFP expression
- Reagents: single siRNA against mouse genes, 0.8 pmol siRNA per well (2 µl of 400 nM stock)
- Timing: 3 days
- Measured: 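Percent of the per-plate non-targeting control median for intracellular GFP per well by laser scanning cytometry and for cell viability by ATP luminescence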
- Reading the numbers: GFP, % of control: higher = more GFP per well, higher productivity; viability (ATP), % of control: higher = more viable cells (more ATP)
- Hit rule: 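Called active when intracellular GFP, relative to negative control, is at or above 120%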

gene symbol,siRNA no.,"GFP, % of control","viability (ATP), % of control"
Sox30,1,66.7,63.8
Sox30,2,73.4,71.4
Sox30,3,75.7,62
Iffo1,1,88,68.5
Iffo1,2,137 (active),83.2
Iffo1,3,95.8,101
Tagln,1,45.6,61
Tagln,2,38.6,31.7
Tagln,3,58.4,78.6
H2-D1,1,66.9,92.3
H2-D1,2,56.7,47.8
H2-D1,3,68.8,58.7
H2-D1,4,70.1,64
H2-D1,5,101,63.6
H2-D1,6,70.3,58.9
Lpcat2,1,108,138
Lpcat2,2,130 (active),90
Cyp4a12b,1,126 (active),57.1
Cyp4a12b,2,71.5,80.2
Cyp4a12b,3,152 (active),63.1
Actr3,1,99.2,92
Actr3,2,69.7,54.1
Coa3,1,89.2,94.2
Coa3,2,69.5,64.3
Coa3,3,106,135
Mta1,1,46.3,61.9
Mta1,2,44.9,64.7
Mta1,3,69.2,73.4
Ephb2,1,25.3,32.5
Ephb2,2,81,99.8
Ephb2,3,31.6,73.4
Mrpl1,1,68.6,51.6
Mrpl1,2,42.5,36.2
Mrpl1,3,62.9,86.8
Cab39l,1,56.2,52.5
Cab39l,2,29.7,34.6
Cab39l,3,70.8,60.2
Prm2,1,24.1,13.2
Prm2,2,87.5,49.5
Prm2,3,74.2,87.5
Eef1e1,1,75.7,82.9
Eef1e1,2,73.1,86.2
Lztfl1,1,74,61.5
Lztfl1,2,53.9,82
Lztfl1,3,80.7,70.4
St6galnac3,1,47.7,27.6
St6galnac3,2,82.7,155
St6galnac3,3,101,122
P4ha2,1,90.2,108
P4ha2,2,79.4,110
P4ha2,3,96,82.2
Ear1,1,102,96.5
Ear1,2,58.1,56.8
Ear1,3,46.6,58.5
Bmf,1,130 (active),108
Bmf,2,59.5,64.5
Bmf,3,146 (active),146

Only “GFP, % of control” (9 entries from above):
Mrpl1 #2 = 42.5
Mrpl1 #3 = 62.9
Cab39l #1 = 56.2
Cab39l #2 = 29.7
Cab39l #3 = 70.8
Prm2 #1 = 24.1
Prm2 #2 = 87.5
Prm2 #3 = 74.2
Eef1e1 #1 = 75.7
